{
  "sequences": {"note": "Chains of the proteins cited; added tags and fusions are not shown. Lines headed by an entry give the natural chain unless they say otherwise; changes in a name come on top.", "UniProt P51570": "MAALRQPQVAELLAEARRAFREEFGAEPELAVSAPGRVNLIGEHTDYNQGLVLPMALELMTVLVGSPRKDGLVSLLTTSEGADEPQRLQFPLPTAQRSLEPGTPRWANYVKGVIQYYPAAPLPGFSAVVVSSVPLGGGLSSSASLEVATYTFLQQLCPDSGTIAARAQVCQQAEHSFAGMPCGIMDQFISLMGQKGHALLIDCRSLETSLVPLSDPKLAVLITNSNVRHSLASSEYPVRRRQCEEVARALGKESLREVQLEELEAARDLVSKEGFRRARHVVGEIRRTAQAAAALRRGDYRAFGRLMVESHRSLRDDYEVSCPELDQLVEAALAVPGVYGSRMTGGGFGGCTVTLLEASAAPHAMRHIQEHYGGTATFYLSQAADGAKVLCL"},
  "source": "PubChem BioAssay AID743373",
  "about": "(National Center for Advancing Translational Sciences (NCATS), 2014)",
  "note": "“And” between values parts separate entries of the source, which are not always exact repeats. Equal entries are not always repeated. The shares of active, inactive and inconclusive entries below differ from those in the screen. Where the call is inconclusive, the potency comes from a doubtful curve fit. The source made the active and inactive calls. The call rests on the fitted dose curve; in most records, active means well fitted inhibition curve with a large enough effect; inconclusive means small, poorly fitted or top-dose-only effect; inactive means flat fitted curve, though single readings scatter.",
  "data": [
    {"biological_target": "Galactokinase (Homo sapiens) (UniProt P51570)", "test": "qHTS for Inhibitors of Human Galactokinase (GALK): Confirmation Assay for SAR round 4", "settings": "recombinant GALK, ADP-Glo luminescence, 1 h; series mostly up to 57.5 µM", "from_the_text": "Inherited deficiency of galactose-1-phosphate uridyltransferase (GALT) can result in a potentially lethal disorder called Classic Galactosemia (OMIM 230400). Several lines of evidence indicate that an elevated level of galactose-1-phosphate (gal-1-p), the product of galactokinase (GALK), is a major, if not sole, pathogenic mechanism in patients with classic galactosemia. Therefore, finding inhibitors of GALK is a potential novel therapy for this inherent metabolic disease and is the long term goal of this project. Active compounds observed in the qHTS GALK assay (AID: 1868) were cherry picked and re-screened for validation. GALK (provided by Kent Lai) was assayed using ATP and D-(+)-Galactose (Sigma-Aldrich cat# G0750) as substrates. Promega ADP-Glo technology was used to detect the ADP product formed after the kinase reaction. Kinase reactions with and without GALK were used as negative and positive controls together with Protein Tyrosine Phosphatase CD45 inhibitor (EMD Bioscience cat# 540215) which is shown to inhibit GALK activity. Decrease in activity corresponds to inhibition of the enzyme, the desired outcome for this assay. NIH Molecular Libraries Probe Production Network [MLPCN] NIH Chemical Genomics Center [NCGC] Grant: R03 MH085689-01 PI Name: Kent Lai, University of Utah\nTwo uL/well of ATP-buffer solution (35 uM ATP, 20mM HEPES pH8.0, 5 mM MgCl2, 60 mM NaCl, 1 mM DTT, 0.01% BSA final concentration) was dispensed into 1536-well, assay plates (Greiner, solid white medium-binding plates) with Aurora Discovery BioRAPTR Flying Reagent Dispenser (FRD; Beckton-Dickenson). Compound and control solution (23 nL) was transferred to the assay plate using the Kalypsys 1536-pin tool apparatus. Half uL/well GALK-galactose solution (5 nM GALK, 100 uM galactose, 20 mM HEPES pH8.0, 5 mM MgCl2, 60 mM NaCl, 1 mM DTT, 0.01% BSA final concentration) was then added using the FRD yielding a total kinase reaction volume of 2.5 uL/ well. After 1 hour of room temperature incubation, 2.5 uL ADP-Glo reagent A was added and incubated for 15 min. Five micorliter of ADP-Glo reagent B was then added per well and incubated for additional 15 min at room temperature. Luminescence was detected with the ViewLux plate reader (Perkin Elmer, Waltham, MA) using a 1 sec exposure time and 2x binning.", "values": [
      {"smiles": "CC1=C(C(=O)NC2CCCC2)C(c2[nH]ncc2Cl)N=C(Nc2nc3ccccc3o2)N1", "note": "(stereo not drawn)", "Potency": "inactive"},
      {"smiles": "CC1=C(C(=O)Nc2nc3ccccc3s2)C2(CCCC2)N=C(Nc2nc3ccccc3o2)N1", "Potency": "inactive"},
      {"smiles": "O=C1CCCC2=C1C(c1ccccc1Br)N=C(Nc1nc3ccccc3o1)N2", "note": "(stereo not drawn)", "Potency": "active: 4.32 µM"},
      {"smiles": "CNC(=O)C1=C(C)NC(Nc2nc3ccccc3o2)=NC12CCCC2", "Potency": "inactive"},
      {"smiles": "O=C1CCCC2=C1C1(CCSCC1)N=C(Nc1nc3ccccc3o1)N2", "Potency": "inconclusive: 1.37 µM [inhibitor, full curve]"},
      {"smiles": "CC1=C(C(=O)Nc2nncs2)C(c2[nH]ncc2Cl)N=C(Nc2nc3ccccc3o2)N1", "note": "(stereo not drawn)", "Potency": "active: 7.69 µM"},
      {"smiles": "CC1=C(C(=O)Nc2ccccc2Cl)C(c2ccccc2Br)N=C(Nc2nc3ccccc3o2)N1", "note": "(stereo not drawn)", "Potency": "inconclusive: 3.06 µM [inhibitor, full curve]"},
      {"smiles": "CC1=C(C(=O)N(C)c2ccccc2C)C(c2ccccc2Br)N=C(Nc2nc3ccccc3o2)N1", "note": "(stereo not drawn)", "Potency": "inconclusive: 9.68 µM [inhibitor, partial curve]"},
      {"smiles": "CC1=C(C(=O)NC2CC2)C(c2[nH]ncc2Cl)N=C(Nc2nc3ccccc3o2)N1", "note": "(stereo not drawn)", "Potency": "inconclusive: 19.3 µM [inhibitor, partial curve]"},
      {"smiles": "O=C1CCCC2=C1C(c1ccncc1Cl)N=C(Nc1nc3ccccc3o1)N2", "note": "(stereo not drawn)", "Potency": "active: 10.9 µM"},
      {"smiles": "CC(C)CN1CC2=C(C1=O)C(c1ccccc1Cl)N=C(Nc1nc3ccccc3o1)N2", "note": "(stereo not drawn)", "Potency": "inactive"},
      {"smiles": "CC1=C(C(=O)Nc2ccccc2)C(c2ccccc2Cl)N=C(Nc2nc3ccccc3o2)N1", "note": "(stereo not drawn)", "Potency": "inconclusive: 6.11 µM [inhibitor, full curve]"},
      {"smiles": "CC1=C(C(=O)Nc2nnc(-c3ccccc3)s2)C(c2nn(C)cc2Cl)N=C(Nc2nc3ccccc3o2)N1", "note": "(stereo not drawn)", "Potency": "inconclusive: 3.43 µM [inhibitor, full curve]"},
      {"smiles": "CC1=C(C(=O)NCc2ccccc2)C(c2ccccc2Br)N=C(Nc2nc3ccccc3o2)N1", "note": "(stereo not drawn)", "Potency": "inconclusive: 5.44 µM [inhibitor, full curve]"},
      {"smiles": "CNC(=O)C1=C(C)NC(Nc2nc3ccccc3o2)=NC1c1nn(C)cc1Cl", "note": "(stereo not drawn)", "Potency": "inconclusive: 21.7 µM [inhibitor, partial curve]"},
      {"smiles": "CC1=C(C(=O)Nc2nc3ccccc3s2)C(c2[nH]ncc2Cl)N=C(Nc2nc3ccccc3o2)N1", "note": "(stereo not drawn)", "Potency": "inactive"},
      {"smiles": "CC1=C(C(=O)N(C)C)C(c2ccccc2Br)N=C(Nc2nc3ccccc3o2)N1", "note": "(stereo not drawn)", "Potency": "inconclusive: 19.3 µM [inhibitor, partial curve]"},
      {"smiles": "CC1=C(C(=O)Nc2noc3ccccc23)C(c2nn(C)cc2Cl)N=C(Nc2nc3ccccc3o2)N1", "note": "(stereo not drawn)", "Potency": "inactive"},
      {"smiles": "CC1=C(C(=O)Nc2ccc(Cl)cc2)C(c2ccccc2Br)N=C(Nc2nc3ccccc3o2)N1", "note": "(stereo not drawn)", "Potency": "inactive"},
      {"smiles": "CC1=C(C(=O)NC2CCCC2)C(c2nn(C)cc2Cl)N=C(Nc2nc3ccccc3o2)N1", "note": "(stereo not drawn)", "Potency": "inconclusive: 19.3 µM [inhibitor, partial curve]"},
      {"smiles": "O=C1CCCC2=C1C(c1ccccc1I)N=C(Nc1nc3ccccc3o1)N2", "note": "(stereo not drawn)", "Potency": "active: 3.06 µM"},
      {"smiles": "O=C1CCCC2=C1C1(CCS(=O)(=O)C1)N=C(Nc1nc3ccccc3o1)N2", "note": "(stereo not drawn)", "Potency": "inconclusive: 6.11 µM [inhibitor, full curve]"},
      {"smiles": "CC1=C(C(=O)Nc2ccccc2C)C(c2ccccc2Br)N=C(Nc2nc3ccccc3o2)N1", "note": "(stereo not drawn)", "Potency": "inconclusive: 4.85 µM [inhibitor, full curve]"},
      {"smiles": "CC1=C(C(=O)Nc2nc3ccccc3s2)C(c2nn(C)cc2Cl)N=C(Nc2nc3ccccc3o2)N1", "note": "(stereo not drawn)", "Potency": "inactive"},
      {"smiles": "CC1=C(C(=O)Nc2noc3ccccc23)C2(CCCC2)N=C(Nc2nc3ccccc3o2)N1", "Potency": "inactive"},
      {"smiles": "CC1=C(C(=O)Nc2ccccc2)C(c2ccccc2Br)N=C(Nc2nc3ccccc3o2)N1", "note": "(stereo not drawn)", "Potency": "inconclusive: 5.44 µM [inhibitor, full curve]"},
      {"smiles": "COc1ccc(NC(=O)C2=C(C)NC(Nc3nc4ccccc4o3)=NC2c2ccccc2Br)cc1", "note": "(stereo not drawn)", "Potency": "inconclusive: 3.43 µM [inhibitor, full curve]"},
      {"smiles": "CNC(=O)C1=C(C)NC(Nc2nc3ccccc3o2)=NC1c1[nH]ncc1Cl", "note": "(stereo not drawn)", "Potency": "inconclusive: 19.3 µM [inhibitor, partial curve]"},
      {"smiles": "CC1=C(C(=O)Nc2ccon2)C2(CCCC2)N=C(Nc2nc3ccccc3o2)N1", "Potency": "active: 7.69 µM"},
      {"smiles": "CC1=C(C(=O)Nc2ccon2)C(c2ccccc2Br)N=C(Nc2nc3ccccc3o2)N1", "note": "(stereo not drawn)", "Potency": "active: 7.69 µM"},
      {"smiles": "CC1=C(C(=O)Nc2ccon2)C(c2nn(C)cc2Cl)N=C(Nc2nc3ccccc3o2)N1", "note": "(stereo not drawn)", "Potency": "inconclusive: 13.7 µM [inhibitor, partial curve] and inconclusive: 19.3 µM [inhibitor, partial curve]"},
      {"smiles": "CC1=C(C(=O)NC2CCCCC2)C(c2ccccc2Br)N=C(Nc2nc3ccccc3o2)N1", "note": "(stereo not drawn)", "Potency": "inconclusive: 9.68 µM [inhibitor, full curve]"},
      {"smiles": "CC1=C(C(=O)NC2CC2)C(c2nn(C)cc2Cl)N=C(Nc2nc3ccccc3o2)N1", "note": "(stereo not drawn)", "Potency": "inconclusive: 21.7 µM [inhibitor, partial curve]"}
    ]}
  ]
}
